Experimental findings from PMC7819943, “Rice protein-binding microarrays: a tool to detect cis-acting elements near promoter regions in rice” are described below.

Chains of the proteins cited; added tags and fusions are not shown.
UniProt Q0JBA9, entry or part of it: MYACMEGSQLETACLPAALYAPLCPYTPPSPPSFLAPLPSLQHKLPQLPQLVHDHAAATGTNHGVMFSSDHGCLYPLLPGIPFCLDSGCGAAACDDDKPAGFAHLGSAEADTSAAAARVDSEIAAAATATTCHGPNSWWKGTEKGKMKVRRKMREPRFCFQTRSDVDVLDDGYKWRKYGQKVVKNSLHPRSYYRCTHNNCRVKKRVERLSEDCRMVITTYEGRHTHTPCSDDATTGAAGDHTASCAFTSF

This is one part of the list.

The assay has as its target OsWRKY34 (Oryza sativa, UniProt Q0JBA9 1-250). Description: protein-binding microarray (RPBM); PBS, 2% BSA, 51.3 ng/ul salmon testes DNA, 50 uM zinc acetate, 200 nM TF, 25 C, 1 h; high values mean tight binding. Particulars: protein: recombinant; tags: N-terminal polyhistidine and DsRed monomer fusion (pET32a); label: CyDye5-dUTP incorporated in the synthesized complementary strand; 3' TTTTT single-stranded linker to array surface; dsDNA, one strand shown. Summed up:
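Transcription factors, each fused N-terminally to a polyhistidine tag and DsRed, were expressed in E. coli BL21-CodonPlus and purified on Ni–NTA. A custom Agilent array was made double-stranded by primer extension with Cy5-dUTP and blocked with 2% BSA. It was incubated with 200 nM protein in PBS, 2% BSA, salmon testes DNA and 50 µM zinc acetate at 25 °C for 1 h, then washed. The binding signal is per-feature fluorescence intensity (arbitrary units) read on an Axon 4000B scanner.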
As to “AGTTCCTCTATTGTTCTCTCTCCCATTCTGTCTCTCACTCCGGAGTCACCTAGTGCAG”, the binding signal was 9610 fluorescence intensity (a.u.).
Next, “CATCTCGCTCTCGCTGCCGGCACGGCTCGCGACTCGTCGCCGGAGTCACCTAGTGCAG”: 10300 fluorescence intensity (a.u.).
With “GCCCGCCCGTCCCGTCCGACGTCCGCGTCACGCACGCGCGCGGAGTCACCTAGTGCAG”, the binding signal was 10100 fluorescence intensity (a.u.).
Then “TGCTTTTCTACTCCTCAACTCCGCTCCACTCTCCACCCGGCGGAGTCACCTAGTGCAG”, with 8160 fluorescence intensity (a.u.); and “ACGCCACGCCACCGGCCACCACGACGACCGATCTGTTCATCGGAGTCACCTAGTGCAG”, with 8780 fluorescence intensity (a.u.).
Then “TAGTAAGTGTTGCTGTGATATCTATAATGTATCTGTTTTTCGGAGTCACCTAGTGCAG”, with 8940 fluorescence intensity (a.u.); and “ACGCTTGGGTAGCCCTCACTCCCGTGGATTTGCCACCGTTCGGAGTCACCTAGTGCAG”, with 8480 fluorescence intensity (a.u.).
Then “CGTAGGACTAGGAGGGGTCAGGTTGGCTTTTTTTAGATAGCGGAGTCACCTAGTGCAG”, with 10300 fluorescence intensity (a.u.).
With “AGTCGCTACCGTTCCTTTTCTTCATTTTGGCCCATCAAAGCGGAGTCACCTAGTGCAG”, the binding signal is 9360 fluorescence intensity (a.u.).
Next, “ATATGTCTGACTTGTACTTTTATGTTATTTTTCCTCTAATCGGAGTCACCTAGTGCAG”: 13900 fluorescence intensity (a.u.); “ATTAGCCTGCCACCTCAGATCCATGGCCTTCTTGTCGGTCCGGAGTCACCTAGTGCAG”: 11000 fluorescence intensity (a.u.).
Then “TTTATTTATGACGTCATTATTCCCCTCTCGCGCGCCTATACGGAGTCACCTAGTGCAG”, with 8270 fluorescence intensity (a.u.); and “TTCCTTTTTTCCAGCCAACCAGTACAGGCTGCATTTATCACGGAGTCACCTAGTGCAG”, with 8980 fluorescence intensity (a.u.); and “GCGGCGGCGGCGGGGTGTGGTCTGCGGCCACGGCGAGGACCGGAGTCACCTAGTGCAG”, with 9570 fluorescence intensity (a.u.).
Next, “GGCATTCTGTTTGTTGCTAGCACTGTTTTTGTTACATGTTCGGAGTCACCTAGTGCAG”: 14600 fluorescence intensity (a.u.); “GAAATAGGAGTAGGTTTTATCGTTCTTTTGTGTTTAATACCGGAGTCACCTAGTGCAG”: 8310 fluorescence intensity (a.u.); “CCCTACTTCCCATCAAAGATACTTTGCTGCTTTGTTTATTCGGAGTCACCTAGTGCAG”: 8530 fluorescence intensity (a.u.).
As to “TTTTGCGCGGATGGCCCTTTACTTTTCCCCTCTTGTCCTCCGGAGTCACCTAGTGCAG”, the binding signal was 10400 fluorescence intensity (a.u.).
Then “CTTGTTGATGTGGGTGTTTCTTGGTCGATCCTTCTTGTTTCGGAGTCACCTAGTGCAG”, with 8330 fluorescence intensity (a.u.); and “TTTTAGCTCTTACATGAGAGTCAACCCTTCTCACTTATTTCGGAGTCACCTAGTGCAG”, with 8040 fluorescence intensity (a.u.); and “AGGTTCATCTCTCCAATCCTAGACATCATTTTTGCTACACCGGAGTCACCTAGTGCAG”, with 8120 fluorescence intensity (a.u.).
Next, “GCTACTTCTTCCCCATCACCACCACCACCACCATCGCTTTCGGAGTCACCTAGTGCAG”: 8850 fluorescence intensity (a.u.); “TATTCACCAGCTCTGTTGTTTACTTGCTTCACCAACATACCGGAGTCACCTAGTGCAG”: 8930 fluorescence intensity (a.u.).
For “TCGAAGATGGGACCTTTGATCTGCTGTGTTGCACATTTTTCGGAGTCACCTAGTGCAG”, the binding signal is 9970 fluorescence intensity (a.u.).
Next, “CATGGCCTCCTCGCCCGTCTCGCTCTCGCGCCGCCACCACCGGAGTCACCTAGTGCAG”: 9060 fluorescence intensity (a.u.).
Next, “CCTGTGCCAGCTTGGACTCTCTCATCTCACCCCTTTCTTTCGGAGTCACCTAGTGCAG”: 8300 fluorescence intensity (a.u.); “GGGAGATCGAACTGTTGCTTCTGGTTTTTGGGGCCGGATTCGGAGTCACCTAGTGCAG”: 9290 fluorescence intensity (a.u.); “TTCATGTCAGTTAGTTGGTGCCTAATTTTTACTAGCAATTCGGAGTCACCTAGTGCAG”: 8660 fluorescence intensity (a.u.).
Then “TGATCTACCTCTCCACAATTCAATCCATTTCTTCCTCTACCGGAGTCACCTAGTGCAG”, with 10200 fluorescence intensity (a.u.); and “ACGCATCAACAGTGGAGGGAGGGGAGGGGAGGAGCTTCCCCGGAGTCACCTAGTGCAG”, with 12600 fluorescence intensity (a.u.); and “TGTTTTGACACTATTTGGCACTGTTCAAACAGCGGTACCGCGGAGTCACCTAGTGCAG”, with 10700 fluorescence intensity (a.u.).
Turning to “TTCCGCGTTCTCTTTCGTTCTCGCTTAGACCTCAGCTTACCGGAGTCACCTAGTGCAG”, the binding signal is 11800 fluorescence intensity (a.u.).
Next, “CTTACGACAACCCGCCATGTCTTTTTTTCCGCCATAAGTACGGAGTCACCTAGTGCAG”: 11600 fluorescence intensity (a.u.); “AGAATGTTTGCTCAAAGTATGTTTTTGTCATCTGTTTTTCCGGAGTCACCTAGTGCAG”: 8800 fluorescence intensity (a.u.).
With “TTTTTTTCTATCTAGGTATAATCCGAACGAGCCCATAATTCGGAGTCACCTAGTGCAG”, the binding signal is 8350 fluorescence intensity (a.u.).
Consider “TTGCCGGTCGGCGCCCATGGTTTTTCCCGCAAGGATTTTCCGGAGTCACCTAGTGCAG”, for which the binding signal was 8670 fluorescence intensity (a.u.).
As to “ACACACACACACACCCACCACACCACCCCGGCCGCTTCCGCGGAGTCACCTAGTGCAG”, the binding signal is 12200 fluorescence intensity (a.u.).
Then “CCACACCGAATCCCAACCACCATTGCCGCGCCGAGCTCTTCGGAGTCACCTAGTGCAG”, with 8560 fluorescence intensity (a.u.).
Then “CTCGATCCTTCCATCTCCTCGTCTTCTCGTTTTTCCCGACCGGAGTCACCTAGTGCAG”, with 9550 fluorescence intensity (a.u.); and “ATCAATCCACCACTCCATTATTTTGCGTAATTTTTTCCCCCGGAGTCACCTAGTGCAG”, with 8980 fluorescence intensity (a.u.).
In the case of “TGTGGTGTTCGTCTTCTTGGTGGATCTTGCTGCTGGTATACGGAGTCACCTAGTGCAG”, the binding signal was 8720 fluorescence intensity (a.u.).
Next, “GTGCTGGAGGAGTTCGTTGTCATCACATATCCGCAACCGACGGAGTCACCTAGTGCAG”: 8730 fluorescence intensity (a.u.).
